Measurements as given in paper doi:10.1101/2023.05.11.540316.

B1: Rab3c (protein, UniProt P62824 1-227)
chain: MRHEAPMQMASAQDARFGQKDSSDQNFDYMFKLLIIGNSSVGKTSFLFRYADDSFTSAFVSTVGIDFKVKTVFKNEKRIKLQIWDTAGQERYRTITTAYYRGAMGFILMYDITNEESFNAVQDWSTQIKTYSWDNAQVILAGNKCDMEDERVVSTERGQRLGEQLGFEFFETSAKDNINVKQTFERLVDIICDKMSESLETDPAITAAKQSTRLKETPPPPQPNCGC
B2: Sec22b (protein, UniProt Q4KM74 1-215)
chain: MVLLTMIARVADGLPLAASMQEDEQSGRDLQQYQSQAKQLFRKLNEQSPTRCTLEAGAMTFHYIIEQGVCYLVLCEAAFPKKLAFAYLEDLHSEFDEQHGKKVPTVSRPYSFIEFDTFIQKTKKLYIDSRARRNLGSINTELQDVQRIMVANIEEVLQRGEALSALDSKANNLSSLSKKYRQDAKYLNMRSTYAKLAAVAVFFIMLIVYVRFWWL
B3: Rab10 (protein, UniProt P35281 1-200)
chain: MAKKTYDLLFKLLLIGDSGVGKTCVLFRFSDDAFNTTFISTIEIDFKIKTVELQGKKIKLQIWDTAGQERFHTITTSYYRGAMGIMLVYDITNGKSFENISKWLRNIDQHANEDVERMLLRNKCDMDHKRVVPKGKGEQIAREHRIRFFETSAKANINIEKAFLTLPEDILRKTPVKEPNSENVDISSGGGVTGWKSKCC
B4: Rab5c (protein, UniProt B0BNK1 1-216)
chain: MAGRGGAARPNGPAAGNKICQFKLVLLGESAVGKSSLVLRFVKGQFHEYQESTIGAAFLTQTVCLDDTTVKFEIWDTAGQERYHSLAPMYYRGAQAAIVVYDITNTDTFARAKNWVKELQRQASPNIVIALAGNKADLASKRAVEFQEAQAYADDNSLLFMETSAKTAMNVNEIFMAIAKKLPKNEPQNAAGAPGRNRGVDLQESNPASRSQCCSN
B5: Nefm (protein, UniProt P12839 1-846)
chain: MSYTLDSLGNPSAYRRVPTETRSSFSRVSGSPSSGFRSQSWSRGSPSTVSSSYKRSALAPRLAYSSAMLSSAESSLDFSQSSSLLNGGSGGDYKLSRSNEKEQLQGLNDRFAGYIEKVHYLEQQNKEIEAEIHALRQKQASHAQLGDAYDQEIRELRATLEMVNHEKAQVQLDSDHLEEDIHRLKERFEEEARLRDDTEAAIRAVRKDIEESSMVKVELDKKVQSLQDEVAFLRSNHEEEVADLLAQIQASHITVERKDYLKTDISTALKEIRSQLECHSDQNMHQAEEWFKCRYAKLTEAAEQNKEAIRSAKEEIAEYRRQLQSKSIELESVRGTKESLERQLSDIEERHNHDLSSYQDTIQQLENELRGTKWEMARHLREYQDLLNVKMALDIEIAAYRKLLEGEETRFSTFSGSITGPLYTHRQPSVTISSKIQKTKVEAPKLKVQHKFVEEIIEETKVEDEKSEMEDALTVIAEELAASAKEEKEEAEEKEEEPEVEKSPVKSPEAKEEEEGEKEEEEEGQEEEEEEDEGVKSDQAEEGGSEKEGSSEKDEGEQEEEGETEAEGEGEEAEAKEEKKTEGKVEEMAIKEEIKVEKPEKAKSPVPKSPVEEVKPKPEAKAGKDEQKEEEKVEEKKEVAKESPKEEKVEKKEEKPKDVPDKKKAESPVKEKAVEEMITITKSVKVSLEKDTKEEKPQQQEKVKEKAEEEGGSEEEVGDKSPQESKKEDIAINGEVEGKEEEEQETQEKGSGQEEEKGVVTNGLDVSPAEEKKGEDRSDDKVVVTKKVEKITSEGGDGATKYITKSVTVTQKVEEHEETFEEKLVSTKKVEKVTSHAIVKEVTQGD

Each binder was assayed against T1, GFP-DDHD2 (UniProt D3ZJ91) (assay: affinity purification with mass spectrometry).
T1 sequence: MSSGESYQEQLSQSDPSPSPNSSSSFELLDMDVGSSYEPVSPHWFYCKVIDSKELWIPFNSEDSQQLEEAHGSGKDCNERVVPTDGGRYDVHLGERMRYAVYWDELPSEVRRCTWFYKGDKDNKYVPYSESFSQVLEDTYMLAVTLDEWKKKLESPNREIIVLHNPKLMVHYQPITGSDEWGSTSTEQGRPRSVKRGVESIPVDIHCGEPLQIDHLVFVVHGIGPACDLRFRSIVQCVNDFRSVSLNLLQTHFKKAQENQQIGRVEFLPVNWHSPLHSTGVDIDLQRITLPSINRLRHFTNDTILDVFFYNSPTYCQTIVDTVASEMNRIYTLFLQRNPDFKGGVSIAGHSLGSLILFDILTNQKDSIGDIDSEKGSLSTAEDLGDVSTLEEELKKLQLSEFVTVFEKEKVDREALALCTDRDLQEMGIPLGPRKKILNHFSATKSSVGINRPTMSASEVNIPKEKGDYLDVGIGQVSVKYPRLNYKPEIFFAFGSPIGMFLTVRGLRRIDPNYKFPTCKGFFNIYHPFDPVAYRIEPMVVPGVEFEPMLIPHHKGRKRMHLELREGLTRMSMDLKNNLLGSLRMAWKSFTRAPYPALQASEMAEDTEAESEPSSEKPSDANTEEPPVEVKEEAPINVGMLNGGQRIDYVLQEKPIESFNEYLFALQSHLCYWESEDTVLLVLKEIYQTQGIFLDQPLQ

binding, binds:
B1
B2
B3
B4
B5

Results are given in words; binding and its absence hold for the method and conditions named. In cells and extracts the contact can be indirect. A yes stands for co-enrichment or nearness to the bait. Other partners may have been found. Tags and fused reporters may be left off the sequences shown.
